PubChem BioAssay AID1224828 – NIAID, 2016

- Test: 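Find genes required for NF-kappaB p65 moving into the nucleus after LPS in mouse macrophages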 (primary screen)
- Cell system: mouse RAW264.7 G9 macrophage reporter cells (GFP-p65, Tnf promoter-mCherry)
- Reagents: siRNA pool against mouse genes, 100 nM
- Duration: 2 days siRNA transfection, then 40 min LPS before fixation
- Challenge: LPS (Salmonella minnesota R595) at 10 ng/ml
- Read-out: 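Microscopy ratio of nuclear to perinuclear-ring GFP-p65 signal, scaled to the plate median; gene score is the average of two replicate robust z-scores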
- Direction: p65 translocation robust z-score: higher = more nuclear NF-kappaB p65 after LPS than the plate median; nuclear/cytoplasmic p65 ratio: higher = more nuclear NF-kappaB p65
- Active means: 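Called active when z exceeds 3.3 or falls under -1.56 (median of Tlr4 controls), giving activity score of at least 50; no calls for control wells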
- Meaning of the calls: active = hit (p65 shift raised or lowered); inactive = no clear change
Shown is one part, drawn at random, of about 17,000 deposited reagents. 762 of them (4.5%) count as active. 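Active calls include both raised and lowered p65 entry, mostly lowered; wells with fewer than 50 cells lack a z-score.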 Raw values vary from plate to plate and are shown uncorrected. A number with no mark means an inactive call. The numbers tell different reagents against one gene apart. Reagent sequences are not shown.

For Srf, the entry reads p65 translocation robust z-score -1.21; nuclear/cytoplasmic p65 ratio, rep 1 = 1.32; nuclear/cytoplasmic p65 ratio, rep 2 = 1.44; low cell count flag enough cells to score.
Silencing of Caap1 came out at: p65 translocation robust z-score -1.85 (active); nuclear/cytoplasmic p65 ratio, rep 1 = 1.13; nuclear/cytoplasmic p65 ratio, rep 2 = 1.28; low cell count flag enough cells to score.
Against Or6c74 the deposit lists nuclear/cytoplasmic p65 ratio, rep 1 = 1.77; nuclear/cytoplasmic p65 ratio, rep 2 = 1.45; low cell count flag fewer than 50 cells per well; well left out of scoring.
With knock-down of Or14c45 the results were nuclear/cytoplasmic p65 ratio, rep 1 = 1.45; nuclear/cytoplasmic p65 ratio, rep 2 = 1.36; low cell count flag fewer than 50 cells per well; well left out of scoring.
Hs6st3 showed nuclear/cytoplasmic p65 ratio, rep 1 = 1.17; nuclear/cytoplasmic p65 ratio, rep 2 = 1.12; low cell count flag fewer than 50 cells per well; well left out of scoring.
After knock-down of Spsb2, the screen gave p65 translocation robust z-score -2.18 (active); nuclear/cytoplasmic p65 ratio, rep 1 = 1.28; nuclear/cytoplasmic p65 ratio, rep 2 = 1.25; low cell count flag enough cells to score.
For Or6c207 the deposit lists p65 translocation robust z-score 0.42; nuclear/cytoplasmic p65 ratio, rep 1 = 1.41; nuclear/cytoplasmic p65 ratio, rep 2 = 1.32; low cell count flag enough cells to score.
Against Ndufb7, the values are p65 translocation robust z-score -1.32; nuclear/cytoplasmic p65 ratio, rep 1 = 1.61; nuclear/cytoplasmic p65 ratio, rep 2 = 1.36; low cell count flag enough cells to score.
For Tprkb the deposit lists p65 translocation robust z-score 0.78; nuclear/cytoplasmic p65 ratio, rep 1 = 1.54; nuclear/cytoplasmic p65 ratio, rep 2 = 1.4; low cell count flag enough cells to score.
Ly6e gave p65 translocation robust z-score -1.21; nuclear/cytoplasmic p65 ratio, rep 1 = 1.53; nuclear/cytoplasmic p65 ratio, rep 2 = 1.41; low cell count flag enough cells to score.
After knock-down of Baz1a, the record shows p65 translocation robust z-score 0.67; nuclear/cytoplasmic p65 ratio, rep 1 = 1.71; nuclear/cytoplasmic p65 ratio, rep 2 = 1.92; low cell count flag enough cells to score.
With knock-down of Defb34 the results were p65 translocation robust z-score -0.05; nuclear/cytoplasmic p65 ratio, rep 1 = 1.46; nuclear/cytoplasmic p65 ratio, rep 2 = 1.65; low cell count flag enough cells to score.
Astn2 gave p65 translocation robust z-score -1.11; nuclear/cytoplasmic p65 ratio, rep 1 = 1.41; nuclear/cytoplasmic p65 ratio, rep 2 = 1.38; low cell count flag enough cells to score.
Against Idnk, the entry reads p65 translocation robust z-score 1.78; nuclear/cytoplasmic p65 ratio, rep 1 = 1.59; nuclear/cytoplasmic p65 ratio, rep 2 = 1.7; low cell count flag enough cells to score.
Against Wdr35, the entry reads p65 translocation robust z-score -0.15; nuclear/cytoplasmic p65 ratio, rep 1 = 1.3; nuclear/cytoplasmic p65 ratio, rep 2 = 1.31; low cell count flag enough cells to score.
Knock-down of Igsf1 came out at: p65 translocation robust z-score -0.87; nuclear/cytoplasmic p65 ratio, rep 1 = 1.42; nuclear/cytoplasmic p65 ratio, rep 2 = 1.34; low cell count flag enough cells to score.
For Uri1 the deposit lists p65 translocation robust z-score 1.23; nuclear/cytoplasmic p65 ratio, rep 1 = 1.8; nuclear/cytoplasmic p65 ratio, rep 2 = 1.96; low cell count flag enough cells to score.
After knock-down of Lpar4, the screen gave p65 translocation robust z-score 0.31; nuclear/cytoplasmic p65 ratio, rep 1 = 1.51; nuclear/cytoplasmic p65 ratio, rep 2 = 1.67; low cell count flag enough cells to score.
After knock-down of Or4x13 #1 the results were p65 translocation robust z-score 0.81; nuclear/cytoplasmic p65 ratio, rep 1 = 1.78; nuclear/cytoplasmic p65 ratio, rep 2 = 1.51; low cell count flag enough cells to score.
Against Or4x13 #2, the values are p65 translocation robust z-score -1.48; nuclear/cytoplasmic p65 ratio, rep 1 = 1.43; nuclear/cytoplasmic p65 ratio, rep 2 = 1.23; low cell count flag enough cells to score.
For Ndufa8, the entry reads p65 translocation robust z-score 0.13; nuclear/cytoplasmic p65 ratio, rep 1 = 1.84; nuclear/cytoplasmic p65 ratio, rep 2 = 1.58; low cell count flag enough cells to score.

Already shown: 2 of the entries above.
Defb34 | p65 translocation robust z-score: -0.05; nuclear/cytoplasmic p65 ratio, rep 1: 1.46; nuclear/cytoplasmic p65 ratio, rep 2: 1.65; low cell count flag: enough cells to score
Astn2 | p65 translocation robust z-score: -1.11; nuclear/cytoplasmic p65 ratio, rep 1: 1.41; nuclear/cytoplasmic p65 ratio, rep 2: 1.38; low cell count flag: enough cells to score
